Data reported in paper PMC5756382.
These are yes or no findings as the source states them, for the method shown. In cells and extracts the contact can be indirect. Some binding calls cover weakened binding; strength is not graded here. Each block holds one molecule with its values, some of them ahead of it.

By UniProt entry, the sequences of proteins in these tests, tags left out.
UniProt Q14247: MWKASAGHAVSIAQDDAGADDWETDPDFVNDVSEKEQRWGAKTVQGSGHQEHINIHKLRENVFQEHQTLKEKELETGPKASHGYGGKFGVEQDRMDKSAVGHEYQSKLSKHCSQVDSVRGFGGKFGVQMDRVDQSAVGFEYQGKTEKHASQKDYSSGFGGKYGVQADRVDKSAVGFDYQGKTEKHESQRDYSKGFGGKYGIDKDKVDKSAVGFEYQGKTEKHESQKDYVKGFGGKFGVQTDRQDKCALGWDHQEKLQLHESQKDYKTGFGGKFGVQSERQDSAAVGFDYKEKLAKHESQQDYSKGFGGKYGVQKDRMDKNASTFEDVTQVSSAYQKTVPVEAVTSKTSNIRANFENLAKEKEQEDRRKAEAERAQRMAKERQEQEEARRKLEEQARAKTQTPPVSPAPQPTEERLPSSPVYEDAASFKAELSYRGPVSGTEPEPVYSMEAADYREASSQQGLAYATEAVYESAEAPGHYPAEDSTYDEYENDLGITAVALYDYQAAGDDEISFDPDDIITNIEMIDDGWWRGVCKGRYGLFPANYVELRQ
UniProt P62962: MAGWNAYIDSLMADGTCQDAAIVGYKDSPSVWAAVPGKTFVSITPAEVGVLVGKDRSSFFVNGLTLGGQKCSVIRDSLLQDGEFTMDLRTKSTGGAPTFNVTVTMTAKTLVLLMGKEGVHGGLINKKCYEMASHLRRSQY
UniProt P07737: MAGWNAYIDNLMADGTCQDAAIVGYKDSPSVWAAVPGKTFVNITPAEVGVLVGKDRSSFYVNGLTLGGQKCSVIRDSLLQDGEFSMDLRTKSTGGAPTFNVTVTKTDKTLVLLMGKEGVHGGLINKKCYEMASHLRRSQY

Columns and labels:
[1] = target: cortactin (human (endogenous in HASM cells)) (UniProt Q14247); assay: co-IP; HASM cells expressing CAS-WT or CAS-SD; ACh 100 uM 5 min or unstimulated; cortactin/Pfn-1 interaction; which protein was precipitated not given
[2] = target: T1, WT CAS (wild type Crk-associated substrate) (UniProt P56945); assay: co-IP; HASM cells transfected with WT CAS or CAS-SD, or with WT cortactin or NP cortactin; ACh 100 uM 5 min or unstimulated; Pfn-1/CAS protein ratios from blots
T1 sequence: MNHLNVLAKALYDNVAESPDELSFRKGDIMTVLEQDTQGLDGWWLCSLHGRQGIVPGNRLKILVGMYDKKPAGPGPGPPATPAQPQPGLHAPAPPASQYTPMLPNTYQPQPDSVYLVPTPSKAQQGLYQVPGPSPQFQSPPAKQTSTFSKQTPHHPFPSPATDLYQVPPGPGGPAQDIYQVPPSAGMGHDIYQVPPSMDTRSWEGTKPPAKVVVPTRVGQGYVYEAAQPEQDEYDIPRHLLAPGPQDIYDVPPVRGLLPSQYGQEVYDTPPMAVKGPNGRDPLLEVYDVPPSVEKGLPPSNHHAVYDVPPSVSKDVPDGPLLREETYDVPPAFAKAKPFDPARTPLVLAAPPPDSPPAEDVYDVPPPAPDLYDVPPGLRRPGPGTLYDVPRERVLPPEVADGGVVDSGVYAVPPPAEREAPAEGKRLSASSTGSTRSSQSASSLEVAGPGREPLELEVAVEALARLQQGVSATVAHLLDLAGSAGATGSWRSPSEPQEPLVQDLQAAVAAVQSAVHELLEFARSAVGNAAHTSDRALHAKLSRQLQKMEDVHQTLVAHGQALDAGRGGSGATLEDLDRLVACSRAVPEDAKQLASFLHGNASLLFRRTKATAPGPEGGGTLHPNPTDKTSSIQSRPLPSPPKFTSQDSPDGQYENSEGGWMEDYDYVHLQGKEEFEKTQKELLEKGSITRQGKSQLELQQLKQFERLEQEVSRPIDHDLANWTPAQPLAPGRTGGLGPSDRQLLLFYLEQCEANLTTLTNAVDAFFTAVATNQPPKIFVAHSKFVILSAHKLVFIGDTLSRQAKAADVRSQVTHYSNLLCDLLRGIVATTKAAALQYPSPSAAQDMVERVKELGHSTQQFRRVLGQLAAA

[3] = target: T2, Crk-associated substrate (CAS) (human (endogenous in HASM cells)) (UniProt P56945); assay: as above
T2 sequence: T1 sequence

[4] = target: T3, Crk-associated substrate (CAS) (mouse (endogenous in tracheal rings)) (UniProt Q61140); assay: co-IP; extracts of mouse tracheal rings (wild type; c-Abl-lox and c-Abl-smko), untreated or ACh 100 uM 5 min; CAS antibody overnight, protein A-Sepharose 3 h; washed in 50 mM Tris-HCl pH 7.6, 150 mM NaCl, 0.1% Triton X-100; blotted for CAS and Pfn-1
T3 sequence: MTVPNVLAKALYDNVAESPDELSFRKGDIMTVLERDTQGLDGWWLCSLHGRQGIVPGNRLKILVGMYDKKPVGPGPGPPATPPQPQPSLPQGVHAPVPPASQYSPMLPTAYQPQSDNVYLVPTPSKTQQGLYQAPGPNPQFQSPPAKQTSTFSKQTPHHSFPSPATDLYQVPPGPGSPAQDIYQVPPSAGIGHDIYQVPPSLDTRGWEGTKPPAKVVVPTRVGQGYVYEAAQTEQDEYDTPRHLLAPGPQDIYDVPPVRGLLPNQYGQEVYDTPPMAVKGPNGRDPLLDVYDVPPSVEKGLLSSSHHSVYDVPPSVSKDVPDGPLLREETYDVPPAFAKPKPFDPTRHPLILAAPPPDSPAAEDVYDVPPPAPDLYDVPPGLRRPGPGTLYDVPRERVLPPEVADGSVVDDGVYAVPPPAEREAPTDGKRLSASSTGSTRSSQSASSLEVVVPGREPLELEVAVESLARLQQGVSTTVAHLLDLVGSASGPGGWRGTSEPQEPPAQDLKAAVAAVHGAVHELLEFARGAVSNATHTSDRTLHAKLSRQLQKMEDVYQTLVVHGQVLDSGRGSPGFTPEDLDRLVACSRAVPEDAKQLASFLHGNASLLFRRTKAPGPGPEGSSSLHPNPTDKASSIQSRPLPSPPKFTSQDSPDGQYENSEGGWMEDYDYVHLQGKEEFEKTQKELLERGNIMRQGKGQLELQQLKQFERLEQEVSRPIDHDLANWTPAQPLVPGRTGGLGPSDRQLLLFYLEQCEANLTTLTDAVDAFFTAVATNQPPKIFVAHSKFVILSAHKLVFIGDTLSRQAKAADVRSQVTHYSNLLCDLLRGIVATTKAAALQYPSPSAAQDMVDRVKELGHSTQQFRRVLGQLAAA

[5] = target: profilin-1 (Pfn-1) (mouse (endogenous in tracheal rings)) (UniProt P62962); assay: co-IP; competition in tissue: synthetic cell-permeable CAS peptide (2.5 ug/ml, 30 min) added to mouse tracheal rings before ACh and co-immunoprecipitation of Pfn-1 with CAS; only the binder purified

binding [1]: binds | binding [2]: binds | binding [3]: binds
Molecule: profilin-1 (Pfn-1) (from UniProt P07737 1-140)

binding [4]: binds
Molecule: profilin-1 (Pfn-1) (from UniProt P62962 1-140)

binding [5]: binds
Molecule: GRKKRRQRRRPPQPPQPQPSLPQGVHAPVPP [cell permeable decoy peptide (CAS)]
